This data set has as its target T1, MdZF32 (Malus domestica) (UniProt A0A540LDV7).
T1 sequence (looked up, limits assumed): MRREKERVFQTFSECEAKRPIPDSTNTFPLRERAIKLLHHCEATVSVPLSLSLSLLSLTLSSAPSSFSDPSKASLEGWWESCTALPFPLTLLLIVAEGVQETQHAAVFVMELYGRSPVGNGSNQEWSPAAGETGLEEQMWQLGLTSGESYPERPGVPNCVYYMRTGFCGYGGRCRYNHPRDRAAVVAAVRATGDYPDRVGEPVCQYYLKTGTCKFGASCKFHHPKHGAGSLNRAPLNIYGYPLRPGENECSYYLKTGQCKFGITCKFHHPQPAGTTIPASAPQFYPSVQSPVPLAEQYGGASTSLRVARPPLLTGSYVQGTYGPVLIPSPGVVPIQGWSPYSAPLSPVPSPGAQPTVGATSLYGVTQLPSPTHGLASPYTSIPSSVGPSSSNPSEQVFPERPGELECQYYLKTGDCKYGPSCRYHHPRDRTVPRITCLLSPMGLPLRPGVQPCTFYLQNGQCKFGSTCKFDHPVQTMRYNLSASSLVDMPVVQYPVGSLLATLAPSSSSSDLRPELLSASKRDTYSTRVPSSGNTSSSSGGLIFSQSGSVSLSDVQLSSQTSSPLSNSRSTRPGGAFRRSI
The experiment in a line: EMSA. Particulars: Light Shift Chemiluminescence EMSA Kit (Beyotime GS009); 3'-biotin dsDNA probes; cold probe at 100x and 200x; pH and temperature not stated; recombinant …; protein details: His (pET-30a+); label: 3' biotin. On the technique in general: A gel shift assay detects complexes by their altered migration in electrophoresis.

The exact form of at least one protein or probe is not confirmed. At least one verdict rests on a figure or table, not on a statement of the authors. Where a protein sequence is shown, tags need not be part of it.

Consider 1 sequence from article PMC11975395.

As to “TCAACGTTGAAAAAAAGAAGTACTATTACCATAAACTAAA (double strand) [MdACO1-P1 probe]”, the binding result is listed as “binds”.
